The values below come from PMC12820563, “FoxP3 forms a head-to-head dimer in vivo and stabilizes its multimerization on adjacent microsatellites”.

Chains of the proteins cited; added tags and fusions are not shown. Residues count along the entry.
UniProt Q99JB6, 188-423: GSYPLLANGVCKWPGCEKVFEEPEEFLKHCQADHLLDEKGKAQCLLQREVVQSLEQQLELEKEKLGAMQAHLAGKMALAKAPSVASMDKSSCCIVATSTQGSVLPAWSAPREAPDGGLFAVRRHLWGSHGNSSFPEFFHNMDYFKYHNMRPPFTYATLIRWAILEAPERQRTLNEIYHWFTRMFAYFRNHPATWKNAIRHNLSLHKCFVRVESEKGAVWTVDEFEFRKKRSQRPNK

For some assays here: Negatives hold for the conditions tested. At least one verdict was read from the data and is not stated in words by the source. Construct, isoform or probe ends are uncertain for at least one entry. For some assays here: Weaker means in comparison with the reference protein, sequence or condition of that experiment. For some assays here: Tags and fusion partners may be left off the protein sequences shown.

The target in data set [1] is FoxP3dN (Mus musculus) (UniProt Q99JB6). Description: EMSA. The conditions noted are these: EMSA: 20 mM HEPES pH 7.5, 150 mM NaCl, 1.5 mM MgCl2, 2 mM DTT, 4 C, 0.2 uM DNA (RBR-FKH 0.8 uM, NFAT 0.4 uM); recombinant protein; residues 188-423.
Data set [2] concerns the target MBP-FoxP3dN (Mus musculus) (UniProt Q99JB6). Put plainly: pull-down. The following applies: Pull-down: 20 mM Tris-HCl pH 7.5, 100 mM NaCl, 1.5 mM MgCl2, room temperature, 0.4 uM MBP protein, 0.1 uM DNA (NFAT 0.2 uM), recombinant protein, residues 188-423, protein details: His6-MBP.
The target in data set [3] is T1, MBP-FoxP1dN (Mus musculus) (UniProt P58462).
T1 sequence (looked up): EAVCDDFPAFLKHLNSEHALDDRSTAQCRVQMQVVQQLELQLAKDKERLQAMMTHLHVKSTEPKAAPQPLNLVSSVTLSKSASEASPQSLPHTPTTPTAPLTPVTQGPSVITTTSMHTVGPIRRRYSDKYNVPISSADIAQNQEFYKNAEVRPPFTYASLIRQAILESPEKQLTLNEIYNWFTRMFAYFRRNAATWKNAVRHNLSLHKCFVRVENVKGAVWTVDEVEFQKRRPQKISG
Put plainly: pull-down. The following applies: Pull-down: 20 mM Tris-HCl pH 7.5, 100 mM NaCl, 1.5 mM MgCl2, room temperature, 0.4 uM MBP protein, 0.1 uM DNA (NFAT 0.2 uM); recombinant protein; residues 342-579; protein details: His6-MBP.

The subject of data set [4] is FoxP2 RBR-FKH + NFAT1 DBD. Description: EMSA. The following applies: monomer; EMSA: 20 mM HEPES pH 7.5, 150 mM NaCl, 1.5 mM MgCl2, 2 mM DTT, 4 C, 0.2 uM DNA (RBR-FKH 0.8 uM, NFAT 0.4 uM); recombinant protein.
Data set [5] concerns FoxP4 RBR-FKH + NFAT1 DBD. Put plainly: EMSA. The following applies: monomer; EMSA: 20 mM HEPES pH 7.5, 150 mM NaCl, 1.5 mM MgCl2, 2 mM DTT, 4 C, 0.2 uM DNA (RBR-FKH 0.8 uM, NFAT 0.4 uM); recombinant protein.
The test system of data set [6] is FoxP3RBR-C-Frog-mFoxP3FKH + NFAT1 DBD. Put plainly: EMSA. The following applies: dimer, affinity modestly reduced for some species; EMSA: 20 mM HEPES pH 7.5, 150 mM NaCl, 1.5 mM MgCl2, 2 mM DTT, 4 C, 0.2 uM DNA (RBR-FKH 0.8 uM, NFAT 0.4 uM); recombinant protein.
Data set [7] has as its system FoxP3RBR-C-Opossum-mFoxP3FKH + NFAT1 DBD. Put plainly: EMSA. The following applies: dimer, affinity modestly reduced for some species; EMSA: 20 mM HEPES pH 7.5, 150 mM NaCl, 1.5 mM MgCl2, 2 mM DTT, 4 C, 0.2 uM DNA (RBR-FKH 0.8 uM, NFAT 0.4 uM); recombinant protein.
Data set [8] deals with FoxP3RBR-C-Platypus-mFoxP3FKH + NFAT1 DBD. Description: EMSA. The conditions noted are these: dimer, affinity modestly reduced for some species; EMSA: 20 mM HEPES pH 7.5, 150 mM NaCl, 1.5 mM MgCl2, 2 mM DTT, 4 C, 0.2 uM DNA (RBR-FKH 0.8 uM, NFAT 0.4 uM); recombinant protein.
For data set [9], the system named is FoxP3RBR-C-Zebrafish-mFoxP3FKH + NFAT1 DBD. Put plainly: EMSA. The following applies: dimer, affinity modestly reduced for some species; EMSA: 20 mM HEPES pH 7.5, 150 mM NaCl, 1.5 mM MgCl2, 2 mM DTT, 4 C, 0.2 uM DNA (RBR-FKH 0.8 uM, NFAT 0.4 uM); recombinant protein.

Consider “AAATTGTGCATCTCGAGATGCACAATTT (double strand) [G2-G2_#1]”, for which, in data set [1], the binding result is recorded as “binds more weakly”.
Same read-out and setting: in the case of “AAATTGTGCATTTCGAAATGCACAATTT (double strand) [G2-G2_#6]” it was “binds more weakly”.
For the sequence “AAATTTGCCGCGTCGAGTAAACAAATTT (double strand) [sFKHM (Fig S1F)]”, the binding result in data set [2] (negative control) is reported as “binds more weakly”.
In the case of “AAATTTGTTTACTCGAAATGCACAATTT (double strand) [G1-G2_#6]”, in data set [1], the binding result is listed as “binds more weakly”.
In the case of “AAATTTGTTTACTCGAGATGCACAATTT (double strand) [G1-G2_#1]”, the binding result in data set [1] is “binds more weakly”.
On to “ATGAGATAGCTTACCTACACGTTAGCAGTA (double strand) [Random (Fig 1C)]”, for which the binding result in data set [2] is “no binding”.
Same read-out and setting: then “GAATTGCGTGCAAGCTTGCACGCAAATT (double strand) [DNA c IR-GCGTGCA spacer mutant]”, with “no binding”; and “GAATTGCGTGCATCGATGCACGCAAATT (double strand) [DNA a/b IR-GCGTGCA]”, with “binds”; and “GAATTTGTTTACAGCTGTAAACAAAATT (double strand) [DNA g IR-FKHM spacer mutant]”, with “binds”.
In the case of “GAATTTGTTTACGATCGTAAACAAAATT (double strand) [DNA f IR-FKHM spacer mutant]”, the binding result in [2] is “binds”.
Regarding “TAGGAAAATTTGTTTACTCGACGCGGCATC (double strand) [sFKHM (Fig 1C)]”, the figures for the binding result in data set [3] and in data set [2] (negative control in legend) were “binds” and “binds more weakly”, respectively.
Consider “TAGGAAAATTTGTTTACTCGAGTAAACATC (double strand) [IR-FKHM (Fig 1C)]”, for which the binding result in data set [3] is listed as “binds”.
As to “TTAGCAGTATTCATCAGCTGGGAGAACA (double strand) [random (Fig S1F)]”, the binding result in [2] was “no binding”.
Turning to “TTAGGAAAATTTGTTTACTCCTCGCGGCAAA (double strand) [DNA2 (NFAT sFKHM)]”, the binding result in data set [4] and in [5] was “binds” each time.
“TTAGGAAAATTTGTTTACTCGAGTAAACAAA (double strand) [DNA1 (NFAT IR-FKHM)]”: the binding result in data set [4], in [6], in data set [7], in data set [8], in [9] and in data set [5] was “binds” in each case.
Turning to “TTGAAGCGTGCAAGCTTGCACGCTTAAA (double strand) [DNA e IR-GCGTGCA flank and spacer mutant]”, the binding result in data set [2] is “no binding”.
On to “TTGAAGCGTGCAGATCTGCACGCTTAAA (double strand) [DNA d IR-GCGTGCA flank and spacer mutant]”, for which the binding result in data set [2] is “no binding”.
Consider “TTGAATGTTTACAGCTGTAAACATTAAA (double strand) [DNA i IR-FKHM flank and spacer mutant]”, for which the binding result in [2] was “binds”.
The same measure, in the same setting: in the case of “TTGAATGTTTACGATCGTAAACATTAAA (double strand) [DNA h IR-FKHM flank and spacer mutant]” it was “binds”.
